Results as given in patent US9040106B2, “Pharmaceutical composition for preventing or treating diabetic erectile dysfunction comprising C3G or extract of mulberry containing C3G” (CATHOLIC UNIVERSITY INDUSTRY-ACADEMIC COOPERATION FOUNDATION, priority 2011, dated 2015).

Assay: Body weight of streptozotosin-induced diabetic rats
Format: in vivo, Sprague-Dawley rats
Conditions: DM+C3G group
Method: Thirty-six 12-wk-old male Sprague-Dawley rats were treated under a protocol approved by the Institutional Animal Care and Use Committee (CUMC-2010-0137-02) and handled according to NIH guidelines. Rats were divided equally into three groups (n=12 in each): control, diabetes (DM), and diabetes with C3G concentration materials treatment (DM+C3G). All rats in the DM and DM+C3G groups received a single intraperitoneal injection of streptozotosin (50 mg/kg). Blood glucose and body weight were monitored weekly and significant diabetes (serum glucose >250 mg/dl) was confirmed in all rats within 1 wk. The diabetic serum level was maintained throughout the experiment. Four weeks after the induction of diabetes, rats in the DM+C3G group were treated with daily oral C3G (10 mg/kg) dissolved in water for 8 weeks. After the 12 weeks, intracavernosal pressure measurement (ICP) was performed, and after ICP measurement, the skin-denuded middle part of the penile shafts was cut and fixed overnight in 10% formalin, washed, and stored in 70% alcohol at 4° C. until processed for paraffin-embedded tissue sectioning (5 μm). […].

SMILES: OC[C@H]1O[C@@H](Oc2cc3c(O)cc(O)cc3[o+]c2-c2ccc(O)c(O)c2)[C@H](O)[C@@H](O)[C@@H]1O [C3G, Cyanidin-3-O-β-d-glucopyranoside]
- Body weight (4 wk after diabetes induction (start of daily oral C3G 10 mg/kg)): 418 ± 78 g
- Body weight (8 wk, daily oral C3G 10 mg/kg from week 4): 408 ± 68 g
- Body weight (12 wk, daily oral C3G 10 mg/kg for 8 weeks): 441 ± 85 g
- Body weight (Pre-DM induction (before C3G treatment)): 441 ± 29 g
